# Experimental data reported in PubChem BioAssay AID270 (DTP/NCI, 2004).
# The list is a part of this screen's results and no random one: it gathers tests that were run many times, whatever their T/C, doses with no T/C, and many T/C values between a quarter and a half above the control. Other doses and runs of a compound stand elsewhere. T/C: endpoint of the treated group in % of that of the vehicle group. Some doses have a count of surviving animals in place of a T/C: the source holds a T/C of zero for them, seemingly a mark for toxic or unscored doses. Some survivor counts are full or nearly so, which does not show that the dose was tolerated: survival well below the control is almost never listed, so the zero probably covers shortened survival too. Counts of survivors are from the toxicity check (mostly the fifth day) where no day follows; animals may have died later. Schedule codes are those of the source, read here as Q, the interval in days (D) or hours (H), X, the number of doses. Counts like (3×) say how often a value occurs here. Some entries hold several experiments; the results are listed from low to high. Where survival is the endpoint, this PubChem deposit counts one and a half times the control or more as active, and values a quarter to a half above the control carry no call in these data; other NCI protocols may use other cut-offs. Some T/C values carry the count of animals alive at the toxicity check (mostly the fifth day); where none is given, no animal had died by that day.
# Test system: BDF1 mice, s.c. Lewis lung carcinoma, T/C %
# Assay: NCI In Vivo Anticancer Drug Screen. Data for tumor model Lewis Lung Carcinoma (subcutaneous) in B6D2F1 (BDF1) mice
# How it was run: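 Tumor-bearing mice were treated with test compound, and either survival or tumor size was recorded. Values are the treated-group measurement divided by that of the vehicle-treated control group.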
# [1] = T/C endpoint: mean tumor weight, dose: 100.0 mg/kg/injection, schedule: Q01DX011 (ip), vehicle: carboxymethylcellulose (CMC), higher T/C = larger tumour
# [2] = T/C endpoint: median survival time, dose: 200.0 mg/kg/injection, schedule: Q01DX009 (ip), vehicle: saline with Tween-80, higher T/C = longer survival
# [3] = T/C endpoint: median survival time, dose: 25.0 mg/kg/injection, schedule: Q01DX009 (ip), vehicle: Klucel (hydroxypropylcellulose) (HPC), higher T/C = longer survival
# [4] = T/C endpoint: median survival time, dose: 50.0 mg/kg/injection, schedule: Q01DX009 (ip), vehicle: Klucel (hydroxypropylcellulose) (HPC), higher T/C = longer survival
# [5] = T/C endpoint: median survival time, dose: 100.0 mg/kg/injection, schedule: Q01DX009 (ip), vehicle: Klucel (hydroxypropylcellulose) (HPC), higher T/C = longer survival
# [6] = T/C endpoint: median survival time, dose: 12.5 mg/kg/injection, schedule: Q01DX009 (ip), vehicle: Klucel (hydroxypropylcellulose) (HPC), higher T/C = longer survival
# [7] = T/C endpoint: median survival time, dose: 150.0 mg/kg/injection, schedule: Q01DX009 (ip), vehicle: saline with Tween-80, higher T/C = longer survival
compound,measurement,setting,value
O=NN(CCCl)C(=O)NCCCl,survivor count,"T/C endpoint: mean tumor weight, dose: 25.0 mg/kg/injection, schedule: Q01DX011 (ip), vehicle: saline, higher T/C = larger tumour",0 of 6
same,survivor count,"T/C endpoint: mean tumor weight, dose: 50.0 mg/kg/injection, schedule: Q01DX011 (ip), vehicle: saline, higher T/C = larger tumour",0 of 6
same,survivor count,"T/C endpoint: median survival time, dose: 2.0 mg/kg/injection, schedule: Q08HX024 (ip), vehicle: Klucel (hydroxypropylcellulose) (HPC), higher T/C = longer survival",10 of 10
same,survivor count,"T/C endpoint: median survival time, dose: 4.0 mg/kg/injection, schedule: Q08HX024 (ip), vehicle: Klucel (hydroxypropylcellulose) (HPC), higher T/C = longer survival",9 of 10
same,T/C,"T/C endpoint: median survival time, dose: 4.4 mg/kg/injection, schedule: Q01DX005 (ip), vehicle: saline + alcohol, evaluated on day 7, higher T/C = longer survival",141 % of control
same,T/C,"T/C endpoint: median survival time, dose: 4.4 mg/kg/injection, schedule: Q01DX005 (ip), vehicle: saline + alcohol, evaluated on day 15, higher T/C = longer survival",146 % of control
same,T/C,"T/C endpoint: median survival time, dose: 6.5 mg/kg/injection, schedule: Q01DX001 (ip), vehicle: saline + alcohol, higher T/C = longer survival",126 % of control
same,T/C,"T/C endpoint: median survival time, dose: 6.7 mg/kg/injection, schedule: Q01DX005 (ip), vehicle: saline + alcohol, higher T/C = longer survival",134 % of control
same,T/C,"T/C endpoint: median survival time, dose: 6.75 mg/kg/injection, schedule: Q01DX001 (ip), vehicle: Klucel (hydroxypropylcellulose) (HPC), higher T/C = longer survival",141 % of control
same,survivor count,"T/C endpoint: median survival time, dose: 8.0 mg/kg/injection, schedule: Q08HX024 (ip), vehicle: Klucel (hydroxypropylcellulose) (HPC), higher T/C = longer survival",8 of 10
same,T/C,"T/C endpoint: median survival time, dose: 20.0 mg/kg/injection, schedule: Q01DX001 (ip), vehicle: saline + alcohol, higher T/C = longer survival",136 % of control
same,T/C,"T/C endpoint: median survival time, dose: 40.0 mg/kg/injection, schedule: Q01DX001 (ip), vehicle: saline with Tween-80, higher T/C = longer survival",139 % of control
same,survivor count,"T/C endpoint: median survival time, dose: 54.0 mg/kg/injection, schedule: Q01DX001 (ip), vehicle: Klucel (hydroxypropylcellulose) (HPC), higher T/C = longer survival",10 of 10
same,survivor count,"T/C endpoint: median survival time, dose: 80.0 mg/kg/injection, schedule: Q01DX001 (ip), vehicle: saline with Tween-80, higher T/C = longer survival",9 of 10 and 10 of 10
same,survivor count,"T/C endpoint: median survival time, dose: 108.0 mg/kg/injection, schedule: Q01DX001 (ip), vehicle: Klucel (hydroxypropylcellulose) (HPC), higher T/C = longer survival",10 of 10
same,survivor count,"T/C endpoint: median survival time, dose: 160.0 mg/kg/injection, schedule: Q01DX001 (ip), vehicle: Klucel (hydroxypropylcellulose) (HPC), higher T/C = longer survival",6 of 10
same,survivor count,"T/C endpoint: median survival time, dose: 160.0 mg/kg/injection, schedule: Q01DX001 (ip), vehicle: saline with Tween-80, higher T/C = longer survival",0 of 10 and 6 of 10
CC(=O)OCC(=O)[C@@]1(O)CC[C@H]2[C@@H]3C[C@H](C)C4=CC(=O)C=C[C@]4(C)[C@@]3(Br)[C@@H](O)C[C@@]21C,survivor count,"T/C endpoint: mean tumor weight, dose: 40.0 mg/kg/injection, schedule: Q01DX011 (sc), vehicle: steroid suspending solution, higher T/C = larger tumour",4 of 8
same,survivor count,"T/C endpoint: mean tumor weight, dose: 60.0 mg/kg/injection, schedule: Q01DX011 (sc), vehicle: steroid suspending solution, higher T/C = larger tumour",2 of 8
same,survivor count,[1],3 of 6
same,survivor count,"T/C endpoint: mean tumor weight, dose: 200.0 mg/kg/injection, schedule: Q01DX011 (ip), vehicle: carboxymethylcellulose (CMC), higher T/C = larger tumour",2 of 6
Nc1ccc2nc3ccc(N)cc3[n+](-c3ccccc3)c2c1,survivor count,"T/C endpoint: median survival time, dose: 1.0 mg/kg/injection, schedule: Q01DX009 (ip), vehicle: saline, higher T/C = longer survival",10 of 10
same,survivor count,"T/C endpoint: median survival time, dose: 4.0 mg/kg/injection, schedule: Q01DX009 (ip), vehicle: saline, higher T/C = longer survival",10 of 10
same,survivor count,"T/C endpoint: median survival time, dose: 8.0 mg/kg/injection, schedule: Q01DX009 (ip), vehicle: saline, higher T/C = longer survival",10 of 10
same,survivor count,"T/C endpoint: median survival time, dose: 16.0 mg/kg/injection, schedule: Q01DX009 (ip), vehicle: saline, higher T/C = longer survival",10 of 10
same,survivor count,"T/C endpoint: median survival time, dose: 32.0 mg/kg/injection, schedule: Q01DX009 (ip), vehicle: saline, higher T/C = longer survival",5 of 10
[O-][n+]1c(CCl)nc2cccc3c2c1-c1ccccc1-3,survivor count,[2],9 of 10 and 10 of 10
O=NN(CCCl)C(=O)NC1CSCSC1,T/C,"T/C endpoint: median survival time, dose: 7.0 mg/kg/injection, schedule: Q04DX004 (ip), vehicle: saline with Tween-80, higher T/C = longer survival",137 % of control [8 of 9 alive]
same,T/C,"T/C endpoint: median survival time, dose: 10.0 mg/kg/injection, schedule: Q01DX001 (ip), vehicle: saline with Tween-80, higher T/C = longer survival",125 % of control
same,T/C,"T/C endpoint: median survival time, dose: 15.0 mg/kg/injection, schedule: Q01DX001 (ip), vehicle: saline with Tween-80, higher T/C = longer survival",140 % of control
same,survivor count,"T/C endpoint: median survival time, dose: 25.0 mg/kg/injection, schedule: Q01DX009 (ip), vehicle: saline with Tween-80, higher T/C = longer survival",10 of 10
same,survivor count,"T/C endpoint: median tumor weight (est.), dose: 22.0 mg/kg/injection, schedule: Q01DX001 (ip), vehicle: saline with Tween-80, higher T/C = larger tumour",4 of 10 on day 18
Nc1ncnc2c1ccn2C1OC(CO)C(O)C1O (stereo not drawn),survivor count,"T/C endpoint: mean tumor weight, dose: 2.5 mg/kg/injection, schedule: Q01DX011 (ip), vehicle: saline, higher T/C = larger tumour",0 of 6
same,survivor count,"T/C endpoint: median survival time, dose: 4.0 mg/kg/injection, schedule: Q01DX011 (ip), vehicle: other, higher T/C = longer survival",7 of 10
same,survivor count,"T/C endpoint: median survival time, dose: 8.0 mg/kg/injection, schedule: Q01DX011 (ip), vehicle: other, higher T/C = longer survival",0 of 10
same,survivor count,"T/C endpoint: median survival time, dose: 16.0 mg/kg/injection, schedule: Q01DX011 (ip), vehicle: other, higher T/C = longer survival",0 of 10
O=[N+]([O-])c1ccc(/C=N/c2ncc(Br)s2)o1,survivor count,[3],9 of 10
same,survivor count,[4],10 of 10
same,survivor count,[5],6 of 10
S=C(N=Nc1ccccc1)NNc1ccccc1,survivor count,"T/C endpoint: mean tumor weight, dose: 65.0 mg/kg/injection, schedule: Q01DX011 (ip), vehicle: carboxymethylcellulose (CMC), higher T/C = larger tumour",0 of 6
same,survivor count,[1],1 of 6
same,survivor count,"T/C endpoint: mean tumor weight, dose: 150.0 mg/kg/injection, schedule: Q01DX011 (ip), vehicle: carboxymethylcellulose (CMC), higher T/C = larger tumour",0 of 6
Cc1cc(O)c2cc3c(O)c(O)ccc3cc2c1,survivor count,"T/C endpoint: mean tumor weight, dose: 8.0 mg/kg/injection, schedule: Q01DX011 (ip), vehicle: saline, higher T/C = larger tumour",0 of 6
Cc1ccc(N2CCN(CCCN3CCN(c4ccccc4Cl)CC3)CC2)cc1,survivor count,"T/C endpoint: mean tumor weight, dose: 180.0 mg/kg/injection, schedule: Q01DX011 (ip), vehicle: carboxymethylcellulose (CMC), higher T/C = larger tumour",0 of 6
CC[C@@H](C(=O)[C@@H](C)[C@@H](O)[C@H](C)CCc1ccc(C)c(O)c1C(=O)O)[C@H]1O[C@](CC)([C@H]2CC[C@](O)(CC)[C@H](C)O2)C[C@@H]1C,survivor count,[6],10 of 10
same,survivor count,[4],9 of 10
same,survivor count,[5],5 of 10
ClCCn1cnc2c(SCc3ccccc3Cl)ncnc21,survivor count,"T/C endpoint: mean tumor weight, dose: 480.0 mg/kg/injection, schedule: Q01DX011 (ip), vehicle: other, higher T/C = larger tumour",0 of 6
CN(C)c1nc(N(C)C)nc(N(C)C)n1,T/C,"T/C endpoint: median survival time, dose: 12.5 mg/kg/injection, schedule: Q08HX024 (ip), vehicle: Klucel (hydroxypropylcellulose) (HPC), higher T/C = longer survival",125 % of control [9 of 10 alive]
same,survivor count,"T/C endpoint: median survival time, dose: 50.0 mg/kg/injection, schedule: Q08HX024 (ip), vehicle: Klucel (hydroxypropylcellulose) (HPC), higher T/C = longer survival",8 of 10
same,survivor count,"T/C endpoint: median survival time, dose: 100.0 mg/kg/injection, schedule: Q01DX009 (ip), vehicle: saline with Tween-80, higher T/C = longer survival",10 of 10
same,survivor count,"T/C endpoint: median survival time, dose: 100.0 mg/kg/injection, schedule: Q08HX024 (ip), vehicle: Klucel (hydroxypropylcellulose) (HPC), higher T/C = longer survival",1 of 10
same,survivor count,[2],10 of 10 (2×)
same,survivor count,"T/C endpoint: median survival time, dose: 200.0 mg/kg/injection, schedule: Q08HX024 (ip), vehicle: Klucel (hydroxypropylcellulose) (HPC), higher T/C = longer survival",0 of 10
Cc1ccc(NC(=O)N(CCCl)N=O)cc1C,survivor count,[6],9 of 10
same,survivor count,[3],10 of 10
same,survivor count,[4],8 of 10
CC(=O)Oc1ccc(/C=N/NC(N)=S)nc1,survivor count,[7],10 of 10
same,survivor count,[2],10 of 10
same,survivor count,"T/C endpoint: median survival time, dose: 400.0 mg/kg/injection, schedule: Q01DX009 (ip), vehicle: saline with Tween-80, higher T/C = longer survival",10 of 10
Clc1[nH]nc2ccccc12,survivor count,"T/C endpoint: mean tumor weight, dose: 500.0 mg/kg/injection, schedule: Q01DX011 (ip), vehicle: saline, higher T/C = larger tumour",0 of 6
C1CC[N-]CC1.C1CC[N-]CC1.C1CC[N-]CC1.C1CC[N-]CC1.[Cl][Co][Cl],survivor count,"T/C endpoint: mean tumor weight, dose: 120.0 mg/kg/injection, schedule: Q01DX011 (ip), vehicle: other, higher T/C = larger tumour",2 of 6
same,survivor count,"T/C endpoint: median survival time, dose: 5.0 mg/kg/injection, schedule: Q01DX009 (ip), vehicle: saline, higher T/C = longer survival",10 of 10
same,survivor count,"T/C endpoint: median survival time, dose: 37.5 mg/kg/injection, schedule: Q01DX009 (ip), vehicle: saline with Tween-80, higher T/C = longer survival",9 of 10
same,survivor count,"T/C endpoint: median survival time, dose: 75.0 mg/kg/injection, schedule: Q01DX009 (ip), vehicle: saline with Tween-80, higher T/C = longer survival",5 of 10
same,survivor count,[7],0 of 10
same,survivor count,"T/C endpoint: median survival time, dose: 300.0 mg/kg/injection, schedule: Q01DX009 (ip), vehicle: saline with Tween-80, higher T/C = longer survival",0 of 10
C/C(=C\c1ccc(C)cc1)[N+](=O)[O-],survivor count,[2],2 of 10
